Measurements published in PubChem BioAssay AID2073 (Sanford-Burnham Center for Chemical Genomics, 2009).
Out of some 290,000 compounds screened, about 570 (0.2%) were called active. The shares of active, inactive and inconclusive entries below differ from those in the screen. Cut-off read from the data, not from the text of the source: active = inhibition mostly above about 51% (no sharp cut-off); inconclusive = no clear call, values can overlap the other calls; inactive = mostly below about 53%.

Sequences of proteins named here, by UniProt entry; tags and fusion partners are left off.
UniProt Q00975, whole entry, looked up: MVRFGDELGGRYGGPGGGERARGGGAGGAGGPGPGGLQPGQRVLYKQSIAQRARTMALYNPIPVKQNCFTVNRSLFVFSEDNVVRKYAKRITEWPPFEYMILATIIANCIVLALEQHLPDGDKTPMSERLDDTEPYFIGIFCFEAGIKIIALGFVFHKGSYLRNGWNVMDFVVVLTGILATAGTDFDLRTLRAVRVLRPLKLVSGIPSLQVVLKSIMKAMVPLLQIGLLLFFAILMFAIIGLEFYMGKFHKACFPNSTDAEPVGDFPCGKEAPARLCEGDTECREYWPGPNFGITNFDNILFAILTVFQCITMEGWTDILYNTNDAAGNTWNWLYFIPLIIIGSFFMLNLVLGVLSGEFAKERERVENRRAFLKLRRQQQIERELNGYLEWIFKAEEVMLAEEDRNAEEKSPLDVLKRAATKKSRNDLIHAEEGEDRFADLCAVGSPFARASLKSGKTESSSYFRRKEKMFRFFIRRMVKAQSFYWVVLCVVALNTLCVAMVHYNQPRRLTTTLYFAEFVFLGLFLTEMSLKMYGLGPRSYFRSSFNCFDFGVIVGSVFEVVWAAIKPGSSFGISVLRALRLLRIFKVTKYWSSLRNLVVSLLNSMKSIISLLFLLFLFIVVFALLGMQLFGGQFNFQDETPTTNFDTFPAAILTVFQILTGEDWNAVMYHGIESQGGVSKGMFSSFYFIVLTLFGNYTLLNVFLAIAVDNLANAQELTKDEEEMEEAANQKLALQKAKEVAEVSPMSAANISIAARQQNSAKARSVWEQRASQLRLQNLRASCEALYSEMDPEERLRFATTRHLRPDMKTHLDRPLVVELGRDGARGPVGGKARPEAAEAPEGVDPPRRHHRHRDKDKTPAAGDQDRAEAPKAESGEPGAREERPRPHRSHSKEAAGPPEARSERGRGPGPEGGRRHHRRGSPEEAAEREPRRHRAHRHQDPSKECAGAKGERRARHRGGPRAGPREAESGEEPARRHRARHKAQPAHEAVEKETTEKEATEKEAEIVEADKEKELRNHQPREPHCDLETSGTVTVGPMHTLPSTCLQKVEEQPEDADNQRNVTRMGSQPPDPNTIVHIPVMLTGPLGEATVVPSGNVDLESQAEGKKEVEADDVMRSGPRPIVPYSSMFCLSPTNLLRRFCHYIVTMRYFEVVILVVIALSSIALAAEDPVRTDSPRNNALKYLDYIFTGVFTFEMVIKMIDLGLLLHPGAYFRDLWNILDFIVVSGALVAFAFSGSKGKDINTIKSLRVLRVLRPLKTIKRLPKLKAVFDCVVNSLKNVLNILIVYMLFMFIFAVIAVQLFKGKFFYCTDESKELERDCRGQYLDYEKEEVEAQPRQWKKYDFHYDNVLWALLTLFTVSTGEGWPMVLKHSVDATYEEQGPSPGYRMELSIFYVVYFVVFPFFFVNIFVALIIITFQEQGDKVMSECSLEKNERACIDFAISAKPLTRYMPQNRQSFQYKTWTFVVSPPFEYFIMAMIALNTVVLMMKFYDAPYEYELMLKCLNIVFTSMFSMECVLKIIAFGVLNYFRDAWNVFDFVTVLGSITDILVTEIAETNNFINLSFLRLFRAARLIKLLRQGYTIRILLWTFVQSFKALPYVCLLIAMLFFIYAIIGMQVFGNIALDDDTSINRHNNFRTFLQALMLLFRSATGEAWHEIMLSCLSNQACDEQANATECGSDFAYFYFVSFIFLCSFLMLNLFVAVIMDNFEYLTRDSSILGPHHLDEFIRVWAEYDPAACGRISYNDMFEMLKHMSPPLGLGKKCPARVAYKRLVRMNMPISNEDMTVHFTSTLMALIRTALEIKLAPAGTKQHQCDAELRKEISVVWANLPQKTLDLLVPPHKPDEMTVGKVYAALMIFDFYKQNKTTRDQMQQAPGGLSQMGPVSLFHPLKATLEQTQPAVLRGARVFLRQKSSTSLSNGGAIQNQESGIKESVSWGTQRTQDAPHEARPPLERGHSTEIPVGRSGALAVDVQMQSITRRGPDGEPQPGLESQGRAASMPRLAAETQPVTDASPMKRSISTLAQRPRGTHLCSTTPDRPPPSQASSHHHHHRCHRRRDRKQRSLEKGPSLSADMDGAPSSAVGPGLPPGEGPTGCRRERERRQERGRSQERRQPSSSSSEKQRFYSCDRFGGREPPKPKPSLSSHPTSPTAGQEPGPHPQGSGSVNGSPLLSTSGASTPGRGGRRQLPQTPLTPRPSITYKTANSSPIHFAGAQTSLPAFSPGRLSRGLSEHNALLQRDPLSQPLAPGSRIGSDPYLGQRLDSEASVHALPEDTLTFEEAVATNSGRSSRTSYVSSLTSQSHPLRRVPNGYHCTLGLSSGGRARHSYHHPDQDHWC

target: Voltage-dependent N-type calcium channel subunit alpha-1B (Homo sapiens) (UniProt Q00975); assay: disruptors of CaV2.2 binding to Mint1 – biochemical, HTRF (AID 2073); details: HTRF protein-protein interaction, Mint1-CaV2.2; at 20 µM; stronger effect = higher value

Row | SMILES | inhibition
1 | O=C(N/N=C/c1ccc(N2CCOCC2)cc1)c1ccccc1OCCOc1ccccc1 | inconclusive: 57.6%
2 | COc1cc(OC)c(C(=O)OCC(=O)c2cc(C)n(CC3CCCO3)c2C)cc1OC (stereo unspecified) | inconclusive: 76.2%
3 | O=C(Nc1cccs1)Nc1c(F)c(F)cc(F)c1F | inconclusive: 58.5%
4 | OC(CN1CCc2ccccc2C1)c1ccccc1 (stereo unspecified) | inconclusive: 57.1%
5 | CC(NC(=O)Cn1nc(C(=O)O)c2ccccc2c1=O)c1ccccc1 (stereo unspecified) | inconclusive: 54.9%
6 | COc1ccc(NC(=O)Nc2ccon2)c(OC)c1 | inconclusive: 59.1%
7 | COC(=O)[C@@H]1C[C@@]2(O)[C@H](O)[C@H](O)[C@H](O)C[C@H]2N1Cc1ccc(C(C)(C)C)cc1 | inconclusive: 56.6%
8 | Cc1ccc(N(C(=O)c2ccco2)C(C(=O)NC2CCCC2)c2cccnc2)cc1C (stereo unspecified) | inconclusive: 98.1%
9 | Cc1ccc(C(=O)Nc2ncc([N+](=O)[O-])s2)cc1 | inactive: 11.7%
10 | Nc1c(Cl)ncnc1NCc1cccnc1 | inconclusive: 75.5%
11 | CCOC(=O)N1CCN(C(=O)C2CCC(=O)N(CCCc3ccccc3)C2)CC1 (stereo unspecified) | inconclusive: 61.6%
12 | Cc1ccc(S(=O)(=O)c2cnc3cc(C)nn3c2N)cc1 | inactive: 9.4%
13 | O=C(N/N=C/c1ccc[nH]1)c1ccc(O)cc1 | inactive: 38.2%
14 | CCSc1nc2ccccc2n1C(=O)/C=C\c1ccc(OC)c(OC)c1 | inconclusive: 69.5%
15 | COc1ccc(CCN(C(=S)Nc2ccccc2)C2CC(=O)N(c3ccccc3)C2=O)cc1 (stereo unspecified) | inactive: 6.3%
16 | COCCCN=C1NN=C(c2cc(C)n(Cc3ccco3)c2C)CS1 | inactive: 24.8%
17 | Cc1cc(N)n2nc(C(F)(F)F)nc2n1 | inactive: -3.1%
18 | CC(C)(C)NC(=O)N1CCCN(c2ccc(C(F)(F)F)cn2)CC1 | inconclusive: 51.4%
19 | O=C(NC(=S)Nc1ccccc1Cl)c1cncc(Br)c1 | inconclusive: 52.3%
20 | COc1ccc(CNC(=O)c2ccc3nccnc3c2)cc1 | inconclusive: 60.8%
21 | Cc1nc(N=C(N)N)nc2c(C)cccc12 | inconclusive: 79.9%
22 | COC(=O)c1c(NC(=O)CSc2nnc(Cn3nnc4ccccc43)n2C)sc(C)c1C | inconclusive: 70%
23 | CC(C)(C)c1ccc(C(=O)N/N=C/c2ccc(OCCCF)cc2)cc1 | inactive: 21.6%

Some of these compounds in order of SMILES length, high to low.
Row | SMILES | inhibition
22 | COC(=O)c1c(NC(=O)CSc2nnc(Cn3nnc4ccccc43)n2C)sc(C)c1C | inconclusive: 70%
23 | CC(C)(C)c1ccc(C(=O)N/N=C/c2ccc(OCCCF)cc2)cc1 | inactive: 21.6%
13 | O=C(N/N=C/c1ccc[nH]1)c1ccc(O)cc1 | inactive: 38.2%

The listing continues:

Row | SMILES | inhibition
24 | CCOCCn1c(=NC(=O)c2cc(Cl)sc2Cl)sc2cc(S(N)(=O)=O)ccc21 | active: 53.8%
25 | CCN(CC)C(=O)C(=O)Nc1ccc(OC)c(Cl)c1 | inactive: 1.5%
26 | COCCNC(=O)CCc1c(C)nc2c(c(C)nn2-c2ccc(C)c(C)c2)c1C | inconclusive: 50.6%
27 | C=CCn1c(=O)c2c(nc3n2CCCN3Cc2ccccc2)n(C)c1=O | inconclusive: 76.3%
28 | COc1ccc(N2C(=O)c3cc4ccccc4cc3C2=O)cc1 | inactive: 4.4%
29 | O=C(O)CSC(C(=O)Nc1ccc(Br)cc1)c1ccc(Cl)cc1 (stereo unspecified) | inactive: 9.9%
30 | Cc1cccc(C)c1-n1c(C)nn(CC2CC2)c1=O | inactive: -5.7%
31 | O=C1N(c2ccccc2)C(=Nc2ccccc2)SC12CC2 | inconclusive: 58.5%
32 | O=c1c2c3c(sc2ncn1/N=C/c1cccnc1)CCCC3 | inconclusive: 54.4%
33 | COc1ccc(CCNC(=O)CCN2C(=O)[C@@H]3Cc4ccccc4CN3C2=O)cc1 | inactive: -3.7%
34 | Cc1cccc(Nc2nc(N)nc(CN3CCN(c4ccccc4)CC3)n2)c1 | inconclusive: 88.9%
35 | CCOc1ccccc1N1CCN(C2=C(NS(=O)(=O)c3cccs3)C(=O)c3ccccc3C2=O)CC1 | inconclusive: 55.4%
36 | CCCC(=O)Nc1ccc(-c2cn3cccnc3n2)cc1 | inconclusive: 55.8%
37 | N#CCCn1cc(C(=O)Nc2ccccc2Br)c(-c2cccs2)n1 | inconclusive: 53.5%
38 | Cc1ccc(C(=O)N/N=C/c2c(O)ccc3ccccc23)cn1 | inactive: 14.1%
39 | COCc1cc(=O)oc2cc(NS(=O)(=O)c3ccc(C)cc3)ccc12 | inconclusive: 64.5%
40 | Oc1ccc(Br)cc1-c1ccn[nH]1 | inconclusive: 52.1%
41 | CCOc1ccc(CN2CCN(Cc3cc4c(cc3Cl)OCO4)CC2CCO)cc1 (stereo unspecified) | inconclusive: 65.4%
42 | CCOC(=O)c1[nH]c(C)c(/C(O)=C2\C(=O)C(=O)N(CCCN(C)C)C2c2ccncc2)c1C (stereo unspecified) | inconclusive: 77.9%
43 | CCCCSc1nc2c(cnn2-c2ccc(Cl)cc2)c(=O)[nH]1 | inconclusive: 56.1%
44 | Cn1c(=O)c2c(n3cnnc13)-c1ccccc1CC21CCCC1 | inactive: 3.5%
45 | CN1CCN(c2ccccc2NC(=O)c2ccc3c(c2)OCCO3)CC1 | inactive: 8.9%
46 | CC(=O)/C=C(\C)Nc1ccc(-c2cnc(-c3ccccc3)o2)cc1 | inconclusive: 64.1%

Row | SMILES | inhibition
47 | Cc1cccc(OS(=O)(=O)NC(=O)OCC2CCCN3CCCCC23)c1 (stereo unspecified) | inconclusive: 62.3%
48 | Nc1ccc(-c2nc3ccc([N+](=O)[O-])cc3[nH]2)cc1 | inactive: 13.5%
49 | O=C(NCCO)Nc1ccc2nc(-c3ccco3)c(-c3ccco3)nc2c1 | inconclusive: 85.1%
50 | COc1ccc(/C=C2\OC(=O)c3c(OC)cccc32)cc1OC | inconclusive: 62.2%
51 | CN(C)c1nc(SCc2ccc(Cl)cc2)nc2c1CCCC2 | inconclusive: 61.5%
52 | O=C(Nc1ccc(Oc2ncnc3cc(Cl)ccc23)nc1)c1cccs1 | inconclusive: 51.6%
53 | Clc1ccc2nnnc(-c3ccccc3)c2c1 | inactive: 8.1%
54 | COCCn1c(SCc2cccnc2)nnc1-c1c[nH]c2ccccc12 | inactive: -0.4%
55 | Cc1nc(CCNC(=O)Cc2ccc(F)cc2)cs1 | inconclusive: 61.3%
56 | CC(C)OC(=O)c1cc2c(ccn2-c2ccc(F)cc2)n1CC(=O)N1CCN(C(=O)c2ccco2)CC1 | inactive: 40.4%
57 | COc1ccc(NC(=O)c2cc3c(Cl)nc4ccccc4c3s2)cc1OC | inconclusive: 56.2%
58 | COC(=O)c1nnn(-c2nonc2N)c1COc1ccc(C=O)cc1OC | inconclusive: 66.8%
59 | COC(=O)C1CC(O)CN1S(=O)(=O)c1cccs1 (stereo unspecified) | inconclusive: 59.4%
60 | COC(=O)c1ccc(C(=O)Nc2ccc3nc(-c4ccncc4)[nH]c3c2)cc1 | inconclusive: 60.9%
61 | CSc1nc(C)cc(Oc2ccc(=O)[nH]n2)n1 | inconclusive: 54.3%
62 | O=C(O)C(Cc1c[nH]c2ccccc12)NS(=O)(=O)c1ccc(Br)cc1 (stereo unspecified) | inactive: -0.4%
63 | O=[N+]([O-])C(=c1ccc2c(c1)N1C3=C(CCCC3)CC3CCCCC31N=2)[N+](=O)[O-] (stereo unspecified) | active: 51.6%
64 | CC(C)(C)c1ccc(OCc2ccc(C(=O)N/N=C/c3ccc(O)c(O)c3)cc2)cc1 | active: 57.4%
65 | COCCCNC(=O)c1cc2c(-c3ccc(Cl)cc3)nn(C)c2s1 | inactive: 13%
66 | COc1ccccc1N(CC(=O)N1CCC(C(N)=O)CC1)S(=O)(=O)c1ccccc1 | inconclusive: 66.3%
67 | O=C(NCCCO)c1ccc2nc(-c3ccco3)c(-c3ccco3)nc2c1 | inconclusive: 92.6%
68 | Cc1nc2ccc(S(=O)(=O)NCC(=O)NCc3ccc4c(c3)OCO4)cc2s1 | inactive: 15.2%
69 | CCOc1ccc(CC(=O)NNC(=S)NCCc2ccccc2)cc1 | inconclusive: 52.6%

Row | SMILES | inhibition
70 | c1ccc2c(c1)CCN(c1nc3ccccc3n3cnnc13)C2 | inactive: 3.9%
71 | C=CCn1c(COc2ccc(Cl)cc2)nnc1SCC(=O)NCC(=O)OCC | inconclusive: 57.1%
72 | COc1ccccc1CNC(=O)c1ccc(Br)o1 | inactive: -2%
73 | CC(C)O/C(=N\S(=O)(=O)c1ccc(Cl)cc1)c1ccccc1 | inactive: 3.7%
74 | Cc1coc(NC(=O)CSc2nc(-c3ccc(Cl)cc3)cc(C(F)(F)F)c2C#N)n1 | inconclusive: 51.9%
75 | CNC(=S)Nc1ccc(Nc2ccccc2)cc1 | inactive: -5.3%
76 | COc1ccc(C(=O)Nc2nc3ccc4nc(C)sc4c3s2)cc1 | inconclusive: 56.3%
77 | COc1cnc(SC)nc1Nc1ccc(C#N)cc1 | inconclusive: 84.7%
78 | O=C(CNC(=O)c1ccc(Cl)cc1)N/N=C/C=C/c1ccccc1 | inactive: 2.8%
79 | CCOC(=O)c1c(C)[nH]c(C)c1C(=O)COC(=O)CCOc1ccccc1OC | inconclusive: 50.1%
80 | COCCCn1c(Cc2csc(Nc3cccc(Cl)c3)n2)nnc1SCC(=O)OC | inconclusive: 53.9%
81 | CCCCC(CC)CNC(=O)Cn1c(=O)[nH]c2ccsc2c1=O (stereo unspecified) | inconclusive: 55%
82 | Nc1c(C(=O)Nc2ccccc2)sc2nc3c(c(-c4ccco4)c12)CCCC3 | inactive: 2.1%
83 | CCOC(=O)c1cnc2ccccc2c1NCCc1ccc(OC)c(OC)c1 | inconclusive: 62.5%
84 | CCOC(=O)N1CCN(CC(O)COc2ccc(C)cc2C(C)(C)C)CC1 (stereo unspecified) | inconclusive: 90.3%
85 | C#CCn1c(O)c(N=NC(=O)CNC(=O)c2cccnc2)c2ccccc21 | inconclusive: 62.6%
86 | COc1ccc(-c2[nH]c(-c3cc(OC)c4c(c3)OCO4)nc2-c2ccccc2)cc1 | inconclusive: 79.4%
87 | COc1cc2c(C(=O)NCc3ccc4c(c3)OCO4)cn(CC(C)C)c(=O)c2cc1OC | inconclusive: 77.4%
88 | O=C(Nc1ccc(Cl)cc1)Nc1nnc(-c2ccncc2)s1 | inactive: 14.4%
89 | COc1ccc(C=Nc2ccc3[nH]ncc3c2)c(O)c1 | inconclusive: 56.2%
90 | COc1cc2c(cc1O)[C@H](Cc1ccc(Oc3cc(C[C@@H]4NCCc5cc(OC)c(O)cc54)ccc3O)cc1)NCC2 | inconclusive: 68.1%
91 | Cc1ccc(Cn2ccc(NC(=O)c3cc(-c4ccco4)on3)n2)cc1 | inconclusive: 53.4%

Reformatted: results already given

| Row | SMILES | inhibition |
| --- | --- | --- |
| 57 | COc1ccc(NC(=O)c2cc3c(Cl)nc4ccccc4c3s2)cc1OC | inconclusive: 56.2% |
| 58 | COC(=O)c1nnn(-c2nonc2N)c1COc1ccc(C=O)cc1OC | inconclusive: 66.8% |
